Data reported in US6919425B2, “Isolation of a cell-specific internalizing peptide that infiltrates tumor tissue for targeted drug delivery” (Board of Regents, The University of Texas System, priority 2000, dated 2005).
For at least one compound, name, drawing or mass did not settle the structure.

Tests used:
[1] = tested on: human invasive HNSCC; test: In situ peptide-binding assay on cryostat sections of primary HNSCC biopsy; conditions: 2.6 uM, 12 h at 25 C
[2] = tested on: MDA177Tu-derived tumor xenografts; test: In vivo internalization assay, HNSCC xenograft in nude mice; conditions: intravenous, 48 h, equimolar agents, size-matched tumors
[3] = tested on: MDA177Tu cells; conditions: fluorescence microscopy, FIG. 1A

**Q.** Which “binding to invasive cancer cells versus adjacent nonmalignant squamous epithelium” value [1] does the source give for `O=C1OC2(c3ccc(O)cc3Oc3cc(O)ccc32)c2ccccc21` [fluorescein, reference compound] here?
**A.** inability

**Q.** What about the “localization to / labeling of tumor cells of HNSCC xenograft” value [2] of the same compound?
**A.** Little labeling

**Q.** And the “internalization / labeling of cells” value [3]?
**A.** did not get internalized
